The source of these data is patent publication US20200155661A1 (LENTIGEN TECHNOLOGY, published 2020).

Protein sequences, listed by entry. Tags and fused reporters are not part of them. Residues count along the entry.
UniProt P20273, residues 20-687: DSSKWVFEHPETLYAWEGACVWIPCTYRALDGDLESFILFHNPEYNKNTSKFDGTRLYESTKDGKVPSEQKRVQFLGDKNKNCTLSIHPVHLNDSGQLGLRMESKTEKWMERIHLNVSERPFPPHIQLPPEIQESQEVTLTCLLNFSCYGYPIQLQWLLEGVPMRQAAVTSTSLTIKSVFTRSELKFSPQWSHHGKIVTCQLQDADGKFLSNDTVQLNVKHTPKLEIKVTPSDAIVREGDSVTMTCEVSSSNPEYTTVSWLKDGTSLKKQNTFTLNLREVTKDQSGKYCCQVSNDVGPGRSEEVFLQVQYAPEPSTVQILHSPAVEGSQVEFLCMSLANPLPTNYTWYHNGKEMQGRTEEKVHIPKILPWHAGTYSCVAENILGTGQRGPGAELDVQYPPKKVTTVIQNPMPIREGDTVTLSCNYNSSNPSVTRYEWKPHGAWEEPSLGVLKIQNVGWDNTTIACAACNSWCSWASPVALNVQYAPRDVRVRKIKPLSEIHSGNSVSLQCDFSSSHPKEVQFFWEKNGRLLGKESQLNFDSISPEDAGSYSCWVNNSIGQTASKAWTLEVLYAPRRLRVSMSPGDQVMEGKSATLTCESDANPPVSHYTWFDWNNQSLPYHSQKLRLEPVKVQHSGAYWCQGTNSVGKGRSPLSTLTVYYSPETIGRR

Changes are numbered by the printed parent chain. No constants are given. Whether binding was seen depends on the method and setting. Some results given as binding are weak or reduced against the parent protein; the word gives no strength.

The target of the assay is recombinant human CD22 (labeled CD22 used in flow cytometry of yeast) (human) (UniProt P20273). The assay can be described thus: flow cytometry analysis of yeast-displayed ScFv.

B1: CD22-specific binder (scFv18) 16P15 (scFv)
scFv: QVQLQQSGPGLVKPSQTLSLTCAISGDSVSSNSAAWNWIRQSPSRGLEWLGRTYYRSKWYNDYAVSVKSRITINPDTSKNQFSLQLNSVTPEDTAVYYCAQEVEPHDALDIWGQGTMVTVSSGGGGSGGGGSGGGGSDIQMTQSPSSVSASVGDKVTITCRASQDVSGWLAWYQQKPGLAPQLLIFGASTLQGEVPSRFSGSGSGTDFTLTISSLQPEDFATYYCQQAKYFPYTFGQGTKLEIK
Regarding B1, the binding result is recorded as “binds”.

B2: CD22-specific binder (scFv8) 16P20 (scFv)
scFv: B1 scFv
In the case of B2, the binding result was “binds”.

B3: CD22-specific binder (scFv12) 16P17 (scFv)
scFv: B1 scFv with P14H, L109F, S149Y, F186S
As for B3, the binding entry is reported as “binds”.

B4: CD22-specific binder (scFv14) 16P1 (scFv)
scFv: B1 scFv with A23D, V103I, L109F, G113D, D138V, F186S, T190S, E194G
B4: the binding result is listed as “binds”.

B5: CD22-specific binder (scFv16) 16P8 (scFv)
scFv: B1 scFv with N61T, S69N, H106Q, L109F, Q237R
B5: the binding entry is reported as “binds”.

B6: CD22-specific binder (scFv10) 16P6 (scFv)
scFv: B1 scFv with E104Q, H106D, L109F, V118I, F186S, E194G, Y230N
On to B6, for which the binding result is listed as “binds”.

B7: CD22-specific binder (scFv17) 16P13 (scFv)
scFv: B1 scFv with D27N, H106Q, L109F, S202G
As to B7, the binding entry was “binds”.

B8: CD22-specific binder (scFv6) 16P3 (scFv)
scFv: B1 scFv with V2I, E104Q, H106D, F186S, Y230N
With B8, the binding entry is recorded as “binds”.

B9: CD22-specific binder (scFv11) 16P10 (scFv)
scFv: B1 scFv with H106Q, L109F, Q237P
Regarding B9, the binding entry is “binds”.

B10: CD22-specific binder (scFv13) 16P20v2 (scFv)
scFv: B1 scFv with E104Q, H106D, L109F, F186S, Y230N
Take B10: the binding entry is on record as “binds”.

B11: CD22-specific binder (scFv15) 16P3v2 (scFv)
scFv: B1 scFv with P14H, T21A, E104Q, H106Q, S147F, T157I, F186S
As for B11, the binding entry was “binds”.

B12: CD22-specific binder (scFv9) 16P2 (scFv)
scFv: B1 scFv with S78F, Q140K
For B12, the binding result is listed as “binds”.

B13: CD22-specific binder (scFv1) 16P (scFv)
scFv: QVQLQQSGPGLVKPSQTLSLTCAISGDSVSSNSAAWNWIRQSPSRGLEWLGRTYYRSKWYNDYAVSVKSRITINPDTSKNQFSLQLNSVTPEDTAVYYCAQEVQPHDAFDIWGQGTMVTVSSGGGGSGGGGSGGGGSDIQMTQSPSSVSASVGDKVTITCRASQDVSGWLAWYQQKPGLAPQLLIFGASTLQGEVPSRFSGSGSGTDFTLTISSLQPEDFATYYCQQAKNFPYTFGQGTKLEIKR
notes: also called founder clone
On to B13, for which the binding entry is “binds”.
